For at least one entry, the source does not settle the construct or the ends of the probe. At least one verdict rests on a figure or table, not on a statement of the authors. Tags and fusion partners may be left off the protein sequences shown.

The target in the data set is T1, FUS WT (FUS-FL) (UniProt P35637).
T1 sequence (looked up, limits assumed): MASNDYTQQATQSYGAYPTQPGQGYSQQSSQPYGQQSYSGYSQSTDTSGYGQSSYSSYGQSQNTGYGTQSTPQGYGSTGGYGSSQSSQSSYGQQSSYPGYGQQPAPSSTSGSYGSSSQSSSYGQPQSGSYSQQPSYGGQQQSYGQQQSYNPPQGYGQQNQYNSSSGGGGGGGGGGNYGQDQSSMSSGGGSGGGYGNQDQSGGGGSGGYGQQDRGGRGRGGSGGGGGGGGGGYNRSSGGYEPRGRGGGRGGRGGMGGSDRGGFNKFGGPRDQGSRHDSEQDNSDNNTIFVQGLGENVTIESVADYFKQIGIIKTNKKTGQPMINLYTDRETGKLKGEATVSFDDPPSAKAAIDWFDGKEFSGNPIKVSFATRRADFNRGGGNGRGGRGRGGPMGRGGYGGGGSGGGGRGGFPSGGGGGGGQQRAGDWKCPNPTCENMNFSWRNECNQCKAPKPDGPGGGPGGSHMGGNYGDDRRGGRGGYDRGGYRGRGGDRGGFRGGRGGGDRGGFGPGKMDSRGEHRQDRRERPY
Kind of data set: MST. Particulars: MST: PBS with 0.05% BSA and 0.05% Tween-20, 5 nM Cy5-RNA, temperature not stated; nucleosome pull-down buffer not given; recombinant protein; protein details: GST (pGEX-6p-2); label: 3' Cy5.

Regarding GGUGGGUGGGUGGGUGGGUG [5XGGUG-3'Cy5], the binding result is “binds”.
Then “UUAGGGUUAGGGUUAGGGUUAGGG [4XUUAGGG-3'Cy5]”, with “binds”.

These data come from publication PMC11162772, “FUS reads histone H3K36me3 to regulate alternative polyadenylation”.
